{"source": "patent US20240066077A1", "about": "(priority 2020, published 2024)", "tested_on": "mouse model of neutrophilic pulmonary disease caused by allergens contaminated with LPS", "test": "Mouse model of neutrophilic pulmonary disease caused by LPS-contaminated allergens (LPS+OVA)", "key": {"[1]": {"conditions": "compared to positive control group"}}, "note": "At least one structure is not confirmed: it was looked up by name or label, or the drawing left a doubt."}
{"smiles": "C[C@@H]1C[C@H]2[C@@H]3CCC4=CC(=O)C=C[C@]4(C)[C@@]3(F)[C@@H](O)C[C@]2(C)[C@@]1(O)C(=O)CO", "note": "[dexamethasone]", "values": [{"measurement": "inflammatory cell infiltration into the pulmonary tissue", "setting": "H&E staining", "value": "significantly suppressed"}, {"measurement": "number of inflammatory cells in BALF", "setting": "[1]", "value": "significantly reduced"}, {"measurement": "number of neutrophils in BALF", "setting": "[1]", "value": "significantly reduced"}]}
